Measured values published in publication PMC7743899.
Results are given in words; binding and its absence hold for the method and conditions named. Binding seen in cells or lysates may run through a third protein. A result given as binding can be weak or reduced; the word gives no strength.

Legend:
[1] = target: SLY (Sycp3-like Y-linked) protein (mouse (endogenous in testis)); test: co-IP; antibody (SLY, SLX/SLXL1, SPIN1 or TBL1XR1) cross-linked to protein A/G-coated beads, incubated with whole-testis extracts (WT or Sly-KD) for 1 h, washed in PBS pH 7.5 with 0.65% Tween, eluted with 0.1 M glycine/HCl pH 3.0; Western blot; IgG as negative control
[2] = target: FLAG-tagged SLY (mouse); test: co-IP; FLAG antibody magnetic beads incubated with FLAG-SLY transgenic testis lysate for 2 h at 4 °C, washed with TBS-0.5% Tween, eluted with 0.1 M glycine/HCl pH 3.0; Western blot

B1: TBL1X (Transducin Beta Like 1 X-Linked) (protein, UniProt Q9QXE7 1-527)
chain: MSITSDEVNFLVYRYLQESGFSHSAFTFGIESHISQSNINGTLVPPAALISILQKGLQYVEAEISINEDGTVFDGRPIESLSLIDAVMPDVVQTRQQAFREKLAQQQANAAAAAAAAAATATSTAATTPAAAAQQNPPKNGEATVNGEENGAHAINNHSKPMEIDGDVEIPPSKATVLRGHESEVFICAWNPVSDLLASGSGDSTARIWNLNENSNGGSTQLVLRHCIREGGHDVPSNKDVTSLDWNSDGTLLATGSYDGFARIWTEDGNLASTLGQHKGPIFALKWNKKGNYILSAGVDKTTIIWDAHTGEAKQQFPFHSAPALDVDWQNNTTFASCSTDMCIHVCRLGCDRPVKTFQGHTNEVNAIKWDPSGMLLASCSDDMTLKIWSMKQDACVHDLQAHSKEIYTIKWSPTGPATSNPNSNIMLASASFDSTVRLWDVERGVCIHTLTKHQEPVYSVAFSPDGKYLASGSFDKCVHIWNTQSGSLVHSYRGTGGIFEVCWNARGDKVGASASDGSVCVLDLRK
[1]
  binding: binds
[2]
  binding: binds
